Data published in patent US20210369640A1, “COMPOSITION CONTAINING SESQUITERPENE DERIVATIVE AS ACTIVE INGREDIENT FOR PREVENTION OR TREATMENT OF MUSCLE DISEASES” (INDUSTRY-ACADEMIC COOPERATION FOUNDATION, YONSEI UNIVERSITY, priority 2017, published 2021).
At least one compound was matched to its structure with a doubt left.

What was measured:
Assay type in all cases: cell-based
[1] = system: mouse myoblast cell line (C2C12 cells); assay: Myotube thickness in dexamethasone-treated mouse myoblasts (Giemsa-Wright staining, ImageJ); details: 50 μM dexamethasone alone; compared to normal cells not treated with dexamethasone
Procedure: A mouse myoblast cell line (C2C12 cells) was purchased from ATCC (Manassas, Va., USA), and the purchased cells were incubated in a 5% CO2 incubator at 37° C. using 10% fetal bovine serum media (Gibco-BRL). When the confluency of the incubated cells became 80%, the myoblasts were allowed to differentiate into myotubes using 2% horse serum media (Gibco-BRL). The mouse myoblasts incubated in Preparation Example 1 were co-treated with 50 dexamethasone (dexa; Sigma) and 100 μM of sesquiterpene derivatives (experimental materials) for two days from day 4 of differentiation of the mouse myoblasts. An experiment was conducted in the same manner as in Example 1, except for treatment with 50 μM of dexamethasone (dexa; Sigma) instead of the sesquiterpene derivatives (experimental materials). […] When the fixing was completed, the myotubes were naturally dried at room temperature for 10 minutes, and then a Giemsa-Wright staining solution (Asan Pharmaceutical, Seoul), which specifically stains myotubes, was dropped onto the myotubes and left for 30 minutes to stain the myotubes. […] Six sections were randomly selected from each well and micrographed, and the thickness of at least […] myotubes from each well was analyzed (three repetitions/group).

p-4E-BP1 protein = assay: Western blotting of p-4E-BP1 in dexamethasone-treated mouse myoblasts; details: 50 μM dexamethasone alone; compared to normal cells (Basal)
p-p70S6K1 protein = assay: Western blotting of p-p70S6K1 in dexamethasone-treated mouse myoblasts; details: 50 μM dexamethasone alone; compared to normal cells (Basal)
MuRF1 = assay: RT-PCR of MuRF1 gene expression in dexamethasone-treated mouse myoblasts; details: 50 μM dexamethasone alone; compared to normal cells (Basal)
Procedure: (§1) A mouse myoblast cell line (C2C12 cells) was purchased from ATCC (Manassas, Va., USA), and the purchased cells were incubated in a 5% CO2 incubator at 37° C. using 10% fetal bovine serum media (Gibco-BRL). When the confluency of the incubated cells became 80%, the myoblasts were allowed to differentiate into myotubes using 2% horse serum media (Gibco-BRL).
(§2) The mouse myoblasts incubated in Preparation Example 1 were co-treated with 50 dexamethasone (dexa; Sigma) and 100 μM of sesquiterpene derivatives (experimental materials) for two days from day 4 of differentiation of the mouse myoblasts.
(§3) An experiment was conducted in the same manner as in Example 1, except for treatment with 50 μM of dexamethasone (dexa; Sigma) instead of the sesquiterpene derivatives (experimental materials).
(§4) 334 μl of a TRIzol solution per 1×10^7 mouse myoblasts of Example 1 was added and replaced, followed by centrifugation at 12,000×g and 4° C. for 10 minutes. The supernatant was transferred to a new tube and then 67 μl of chloroform was added thereto, followed by vortexing. […] The concentration of the extracted RNA samples was measured at wavelengths of 260 nm and 280 nm using a UV/VIS spectrometer (Beckman Coulter, DU730), and was subjected to agarose gel electrophoresis to confirm the integrity of RNA samples. […]

MaFbx/atrogin1 = assay: RT-PCR of MaFbx/atrogin1 gene expression in dexamethasone-treated mouse myoblasts; details: 50 μM dexamethasone alone; compared to normal cells (Basal)
Procedure: as §1, §2, §3, §4

`C[C@@H]1C[C@H]2[C@@H]3CCC4=CC(=O)C=C[C@]4(C)[C@@]3(F)[C@@H](O)C[C@]2(C)[C@@]1(O)C(=O)CO` [dexamethasone, reference compound] was tested, and the “thickness of myotubes (visually confirmed, FIG. 1A)” value [1] was “remarkably reduced”, the “amount of p-4E-BP1 protein” value (p-4E-BP1 protein) was “significantly reduced” and the “amount of p-p70S6K1 protein” value (p-p70S6K1 protein) was “significantly reduced”. The “expression of MuRF1” value (MuRF1) was “significantly increased” and the “expression of MaFbx/atrogin1” value (MaFbx/atrogin1) was “significantly increased”.
